Holding throughout (assay): PRISMA enrichment of interactor (LFQ) in peptide spot vs all other peptide spots (log2 fold change); higher = stronger / more specific binding of the interactor to the peptide
One test deals with AATF, Q9NY61. As to the method: (§1)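 PRISMA: 15-aa overlapping tiles (offset 8 aa) of 60 microproteins, plus SOS1/GLUT1 control peptides, were spot-synthesized on cellulose membranes in triplicate. Membranes were incubated with benzonase-treated HEK293T lysate, and bound proteins were identified by LC-MS/MS with LFQ. Enrichment is the log2 fold change of each protein in one spot versus all other spots. Only interactors passing the significance cutoff are listed.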

By UniProt entry, the sequences of proteins in these tests, tags left out.
RGPD5, Q99666, UniProt Q99666, whole entry: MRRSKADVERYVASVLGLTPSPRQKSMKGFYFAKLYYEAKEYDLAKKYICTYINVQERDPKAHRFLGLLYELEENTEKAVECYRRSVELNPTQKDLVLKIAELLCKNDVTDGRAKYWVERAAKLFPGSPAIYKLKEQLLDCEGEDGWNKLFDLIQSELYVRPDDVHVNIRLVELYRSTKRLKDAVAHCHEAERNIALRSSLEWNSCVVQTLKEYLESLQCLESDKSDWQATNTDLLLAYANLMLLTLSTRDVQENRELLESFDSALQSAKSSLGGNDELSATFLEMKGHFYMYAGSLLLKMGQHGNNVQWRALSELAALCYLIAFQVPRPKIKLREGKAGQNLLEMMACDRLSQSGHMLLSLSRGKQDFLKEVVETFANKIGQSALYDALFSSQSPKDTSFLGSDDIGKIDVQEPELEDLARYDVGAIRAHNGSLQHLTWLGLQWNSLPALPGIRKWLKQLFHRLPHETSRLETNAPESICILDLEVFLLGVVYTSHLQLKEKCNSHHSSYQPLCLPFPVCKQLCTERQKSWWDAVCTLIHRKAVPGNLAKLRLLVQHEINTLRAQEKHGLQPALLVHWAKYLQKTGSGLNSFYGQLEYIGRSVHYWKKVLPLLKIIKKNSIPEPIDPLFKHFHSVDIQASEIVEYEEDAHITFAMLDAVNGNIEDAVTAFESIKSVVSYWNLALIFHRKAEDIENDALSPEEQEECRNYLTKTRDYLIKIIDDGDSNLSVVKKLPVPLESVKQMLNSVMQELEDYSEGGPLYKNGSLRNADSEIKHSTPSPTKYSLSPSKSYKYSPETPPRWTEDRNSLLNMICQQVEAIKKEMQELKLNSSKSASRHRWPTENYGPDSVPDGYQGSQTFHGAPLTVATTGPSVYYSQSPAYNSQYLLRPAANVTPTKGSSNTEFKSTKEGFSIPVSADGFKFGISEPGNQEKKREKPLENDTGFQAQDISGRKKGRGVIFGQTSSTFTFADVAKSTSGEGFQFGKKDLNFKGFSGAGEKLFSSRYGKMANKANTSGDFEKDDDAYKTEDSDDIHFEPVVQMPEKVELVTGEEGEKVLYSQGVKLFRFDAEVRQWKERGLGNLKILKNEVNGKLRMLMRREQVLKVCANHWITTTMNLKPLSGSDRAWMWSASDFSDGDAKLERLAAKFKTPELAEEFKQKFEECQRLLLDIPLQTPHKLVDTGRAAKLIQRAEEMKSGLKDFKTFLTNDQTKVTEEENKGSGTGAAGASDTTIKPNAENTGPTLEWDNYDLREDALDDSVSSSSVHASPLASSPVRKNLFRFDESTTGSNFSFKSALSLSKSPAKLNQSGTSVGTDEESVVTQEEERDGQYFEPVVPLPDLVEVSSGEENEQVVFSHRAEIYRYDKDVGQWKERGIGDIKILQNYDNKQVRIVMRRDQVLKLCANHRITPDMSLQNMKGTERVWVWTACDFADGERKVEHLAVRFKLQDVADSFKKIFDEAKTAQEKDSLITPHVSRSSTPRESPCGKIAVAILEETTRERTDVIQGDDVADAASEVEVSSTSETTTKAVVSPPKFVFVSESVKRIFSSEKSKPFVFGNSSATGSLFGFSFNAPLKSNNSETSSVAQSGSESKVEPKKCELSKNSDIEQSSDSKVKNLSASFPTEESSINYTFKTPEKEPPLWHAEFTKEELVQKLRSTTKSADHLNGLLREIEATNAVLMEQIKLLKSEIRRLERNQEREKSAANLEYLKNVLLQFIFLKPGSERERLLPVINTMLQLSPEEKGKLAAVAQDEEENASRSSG
RBBP7, Q16576, UniProt Q16576, whole entry: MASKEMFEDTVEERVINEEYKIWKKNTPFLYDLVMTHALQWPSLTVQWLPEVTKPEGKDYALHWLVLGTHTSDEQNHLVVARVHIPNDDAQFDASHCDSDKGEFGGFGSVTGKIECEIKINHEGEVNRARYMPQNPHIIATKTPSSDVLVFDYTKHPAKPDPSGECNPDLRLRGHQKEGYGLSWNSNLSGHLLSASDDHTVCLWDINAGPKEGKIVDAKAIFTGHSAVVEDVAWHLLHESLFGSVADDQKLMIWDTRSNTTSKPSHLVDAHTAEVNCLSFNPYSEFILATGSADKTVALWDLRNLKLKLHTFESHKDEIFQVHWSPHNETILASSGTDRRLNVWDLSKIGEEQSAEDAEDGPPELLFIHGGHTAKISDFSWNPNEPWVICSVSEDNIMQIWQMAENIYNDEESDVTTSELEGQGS
SRSF9, Q13242, UniProt Q13242, whole entry: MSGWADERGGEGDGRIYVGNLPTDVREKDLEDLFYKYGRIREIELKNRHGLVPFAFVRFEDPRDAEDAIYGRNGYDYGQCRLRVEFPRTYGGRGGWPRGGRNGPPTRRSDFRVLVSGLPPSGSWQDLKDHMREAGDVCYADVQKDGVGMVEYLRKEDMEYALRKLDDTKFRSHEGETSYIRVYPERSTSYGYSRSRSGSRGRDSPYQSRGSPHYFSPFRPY
TPM4, P67936, UniProt P67936, whole entry: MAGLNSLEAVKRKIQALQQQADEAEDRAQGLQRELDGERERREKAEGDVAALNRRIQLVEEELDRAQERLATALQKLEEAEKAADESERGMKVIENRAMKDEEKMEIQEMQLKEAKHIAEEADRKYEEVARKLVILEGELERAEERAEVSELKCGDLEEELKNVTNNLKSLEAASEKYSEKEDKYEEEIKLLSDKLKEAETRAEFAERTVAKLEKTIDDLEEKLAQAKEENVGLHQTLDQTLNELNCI

A further test addresses CCDC77, Q9BR77. As to the method: as §1
The target of another test is DDX39B, Q13838. As to the method:
as §1

Another test concerns the target EIF3M, Q7L2H7. As to the method: as §1
For the next test, the target named is FAM107B, Q9H098. The method, then: as §1
A further test concerns the target GATA6, Q92908. The method, then: as §1
In another test the target is GTF2F2, P13984. As to the method:
as §1

For a further test, the target named is HACD3, Q9P035. The method, then:
as §1

For a further test, the target named is HOMER1, Q86YM7. The method, then:
as §1

For another test, the target named is LEO1, Q8WVC0. As to the method:
as §1

In the next test the target is LETM1, O95202. The method, then: as §1
The target of a further test is LYAR, Q9NX58. As to the method: as §1
The next test concerns the target MAIP1, Q8WWC4. As to the method: as §1
Another test deals with MCM10, Q7L590. The method, then: as §1
Another test has as its target MED20, Q9H944. The method, then:
as §1

The next test has as its target MEPCE, Q7L2J0. As to the method:
as §1

Another test addresses MRPL40, Q9NQ50. As to the method: as §1
A further test addresses MRPS18B, Q9Y676. As to the method: as §1
In another test the target is MRPS35, P82673. The method, then: as §1
Another test has as its target MRPS9, P82933. As to the method: as §1
The next test addresses MTOR, P42345. As to the method: as §1
The next test deals with PA2G4, Q9UQ80. As to the method:
as §1

A further test addresses PINX1, Q96BK5. The method, then: as §1
The next test has as its target POLR1C, O15160. As to the method:
as §1

The target of another test is QARS. As to the method: as §1
A further test addresses RBX1, P62877. As to the method: as §1
The target in a further test is RGPD5, Q99666. The method, then: as §1
A further test has as its target RNH1, P13489. The method, then:
as §1

Another test addresses SART3, Q15020. The method, then: as §1
For another test, the target named is SRSF8, Q9BRL6. As to the method:
as §1

The target of a further test is TOMM40, O96008. The method, then: as §1
Another test deals with TRIP13, Q15645. As to the method:
as §1

The next test deals with UBR4, Q5T4S7. As to the method: as §1
The target of a further test is USP39, Q53GS9. The method, then: as §1
Another test addresses ZDBF2, Q9HCK1. The method, then: as §1
Another test deals with ABCD3, P28288. The method, then: as §1
A further test addresses ASNS, P08243. The method, then:
as §1

The target in the next test is PPP1R2, P41236. The method, then: as §1
Another test concerns the target STAT3, P40763. As to the method:
as §1

The target in another test is SYAP1, Q96A49. As to the method:
as §1

The target of the next test is ADNP, Q9H2P0. As to the method: as §1
A further test deals with AGBL5, Q8NDL9. The method, then:
as §1

The target in a further test is CASC3, O15234. The method, then: as §1
In a further test the target is CIAO1, O76071. As to the method:
as §1

The next test has as its target CTNND1, O60716. As to the method:
as §1

The target of a further test is DAP3, P51398. As to the method:
as §1

A further test addresses FKBP4, Q02790. As to the method:
as §1

A further test has as its target GNL2, Q13823. As to the method:
as §1

A further test addresses HS2ST1, Q7LGA3. As to the method: as §1
Another test concerns the target LRRC40, Q9H9A6. As to the method: as §1
Another test has as its target MAEA, Q7L5Y9. The method, then: as §1
The target of another test is MDC1, Q14676. The method, then: as §1
A further test addresses MRPS14, O60783. As to the method: as §1
The target of a further test is NCAPD2, Q15021. The method, then:
as §1

A further test concerns the target NUP93, Q8N1F7. As to the method:
as §1

In the next test the target is ODF2, Q5BJF6. The method, then:
as §1

The target in another test is RBBP7, Q16576. The method, then: as §1
In another test the target is RIOK1, Q9BRS2. As to the method: as §1
A further test addresses RIOK2, Q9BVS4. As to the method: as §1
The next test concerns the target SERPINA1, P01009. As to the method:
as §1

Another test concerns the target SMARCE1, Q969G3. As to the method: as §1
Another test concerns the target SRSF5, Q13243. The method, then: as §1
Another test addresses SRSF9, Q13242. The method, then:
as §1

Another test addresses TAOK2, Q9UL54. The method, then:
as §1

The target of the next test is TPM4, P67936. As to the method: as §1
The target in a further test is TRMT10C, Q7L0Y3. As to the method: as §1
The next test has as its target XPO4, Q9C0E2. As to the method: as §1
Another test addresses YTHDF3, Q7Z739. The method, then: as §1
The next test deals with ABAT, P80404. As to the method: as §1
In another test the target is ACACA, Q13085. As to the method:
as §1

A further test deals with AKAP8L, Q9ULX6. As to the method: as §1
The next test has as its target CENPF, P49454. As to the method:
as §1

A further test concerns the target DCAF7, P61962. As to the method:
as §1

Another test concerns the target DNAJA2, O60884. As to the method:
as §1

The target of the next test is GLYR1, Q49A26. The method, then: as §1
A further test has as its target GNB1, P62873. The method, then: as §1
In a further test the target is GYG1, P46976. The method, then: as §1
A further test concerns the target IVD, P26440. The method, then: as §1
A further test has as its target MAGT1, Q9H0U3. The method, then:
as §1

The target in another test is NOL9, Q5SY16. As to the method:
as §1

The next test concerns the target PDHB, P11177. The method, then: as §1
The target in a further test is ROMO1, P60602. As to the method:
as §1

A further test deals with SEPTIN7, Q16181. As to the method: as §1
The target of another test is SF3A3, Q12874. The method, then: as §1
For another test, the target named is TOMM34, Q15785. As to the method:
as §1

The next test addresses TRMT5, Q32P41. As to the method:
as §1

For the next test, the target named is WARS, P23381. As to the method:
as §1

The other results are listed elsewhere or left out. The list holds hits alone, and they repeat only in part.

B1: PVT1 (peptide)
chain: AVPVTCGDTARSALQ
With B1, the “PRISMA enrichment of interactor (log2)” value with AATF, Q9NY61 was found to be 4.79; in the test with CCDC77, Q9BR77, 9.58; with DDX39B, Q13838, 5.38; with EIF3M, Q7L2H7 it was 4.96; in the test with FAM107B, Q9H098, 5.56; in the test with GATA6, Q92908, 5.03. For the same molecule, the “PRISMA enrichment of interactor (log2)” value with GTF2F2, P13984 turned out to be 6.06; with HACD3, Q9P035, 5.32; with HOMER1, Q86YM7 it was 4.68; with LEO1, Q8WVC0, 4.91; with LETM1, O95202 it was 10; with LYAR, Q9NX58, 4.67. Further, the “PRISMA enrichment of interactor (log2)” value with MAIP1, Q8WWC4 was 7.88; with MCM10, Q7L590, 4.38; with MED20, Q9H944, 4.85; with MEPCE, Q7L2J0 it was 6.29; with MRPL40, Q9NQ50, 4.72; with MRPS18B, Q9Y676, 6.25. Moreover, the “PRISMA enrichment of interactor (log2)” value with MRPS35, P82673 was 4.65; with MRPS9, P82933 it was 5.4; with MTOR, P42345, 7.77; with PA2G4, Q9UQ80, 5.4; with PINX1, Q96BK5, 5.72; with POLR1C, O15160, 5.79. Further, the “PRISMA enrichment of interactor (log2)” value with QARS was determined as 7.66; with RBX1, P62877, 6.91; with RGPD5, Q99666, 6.59; with RNH1, P13489, 6.64; with SART3, Q15020, 5.69; with SRSF8, Q9BRL6 it was 4.64. Besides, the “PRISMA enrichment of interactor (log2)” value with TOMM40, O96008 is 4.91; in the test with TRIP13, Q15645, 4.68; with UBR4, Q5T4S7 it was 4.77; in the test with USP39, Q53GS9, 4.51; with ZDBF2, Q9HCK1, 4.31.

B2: JPX (peptide)
chain: VRSMSPLTKVQKLAS
For the molecule B2, the “PRISMA enrichment of interactor (log2)” value is 4.88 with ABCD3, P28288; 5.35 with ASNS, P08243; 4.28 in the test with PPP1R2, P41236; 4.12 with STAT3, P40763; 6.08 with SYAP1, Q96A49.

B3: MKKS (peptide)
chain: DIPEQDSLGLSNLQK
For the molecule B3, the “PRISMA enrichment of interactor (log2)” value with ABCD3, P28288 was 5.69; in the test with ADNP, Q9H2P0, 5.76; in the test with AGBL5, Q8NDL9, 4.86; with CASC3, O15234, 4.76; with CIAO1, O76071, 4.55; with CTNND1, O60716 it was 5.34. The “PRISMA enrichment of interactor (log2)” value was determined as 4.62 with DAP3, P51398; 4.68 with FKBP4, Q02790; 4.81 with GNL2, Q13823; 5.71 with HS2ST1, Q7LGA3; 5.25 with LRRC40, Q9H9A6; 4.58 in the test with MAEA, Q7L5Y9. In addition, the “PRISMA enrichment of interactor (log2)” value with MDC1, Q14676 was found to be 5.71; with MRPS14, O60783, 5.44; in the test with NCAPD2, Q15021 it was 6.61; with NUP93, Q8N1F7, 4.67; in the test with ODF2, Q5BJF6, 6.94; in the test with RBBP7, Q16576, 5.45. The “PRISMA enrichment of interactor (log2)” value in the test with RIOK1, Q9BRS2 was determined as 5.95; in the test with RIOK2, Q9BVS4 it was 5.96; with SERPINA1, P01009, 4.73; in the test with SMARCE1, Q969G3, 5.29; with SRSF5, Q13243, 4.35; with SRSF9, Q13242, 5.53. Further, the “PRISMA enrichment of interactor (log2)” value with TAOK2, Q9UL54 was determined as 7.27; with TPM4, P67936 it was 3.96; with TRMT10C, Q7L0Y3 it was 4.66; with XPO4, Q9C0E2, 4.49; with YTHDF3, Q7Z739 it was 4.63.

B4: PSMB8-AS1 (peptide)
chain: HELLVGSPLPDSASF
Consider B4, for which the “PRISMA enrichment of interactor (log2)” value with ABAT, P80404 stood at 3.6; in the test with ACACA, Q13085, 4.84; with AKAP8L, Q9ULX6, 5.36; in the test with CENPF, P49454, 4.32; with DCAF7, P61962, 6.63; with DNAJA2, O60884, 6.46. For the same molecule, the “PRISMA enrichment of interactor (log2)” value with GLYR1, Q49A26 is 4.91; with GNB1, P62873 it was 7.21; in the test with GYG1, P46976, 5.35; with IVD, P26440, 5.99; with MAGT1, Q9H0U3, 5.47; with NOL9, Q5SY16, 5.44. Also, the “PRISMA enrichment of interactor (log2)” value with PDHB, P11177 stood at 4.39; with ROMO1, P60602, 4.05; with SEPTIN7, Q16181, 4.38; with SF3A3, Q12874, 4.12; with TOMM34, Q15785, 5.34; with TRMT5, Q32P41, 5.54. In the test with WARS, P23381, the “PRISMA enrichment of interactor (log2)” value was determined as 5.77.

The values are drawn from the supplement of paper PMC10032668.
